This assay concerns the target macaca CCR8 (macaca). Briefly: flow cytometry on HEK293T cells transiently expressing macaca CCR8.

Results are given in words; binding and its absence hold for the method and conditions named. A result given as binding can be weak or reduced; the word gives no strength.

B1: VHH-67 (VHH)
VHH: EVQLVESGGGLVQPGGSLRLSCTVSGSIFSLRTVGWYRQAPGKQRELVATISAGGATDYADSVKVRFTVSRDNGKNTVYLQMNSLRPEDTAVYYCYAQDSYKIYKSRYTQDYWGQGTLVTVSS
notes: Monovalent VHH purified from E. coli periplasm with C-terminal FLAG3 and His6 tags; not shown: C-terminal FLAG3 and His6 tags
Take B1: the binding entry is recorded as “binds”.

B2: VHH-57 (VHH)
VHH: EVQLVESGGGLVQPGGSLRLSCTASGNIFSLLDMKWYRQAPGKQRELVADITSGGSTNYADPVKGRFTISRDNAKNTVYLQMNSLRPEDTAVYYCNAAPYYWGAYRRQESWGQGTLVTVSS
notes: as for B1
As for B2, the binding result is listed as “binds”.

B3: VHH-64 (VHH)
VHH: EVQLVESGGGLVQPGGSLRLSCAVSGGIRSIIPAGWYRQVPGKQRELVAAISTAGSADYADSVKGRFTISRDNTKNTAYLQMNSLRPEDTAVYYCNGRQTGWRTRVDYWGQGTLVTVSS
notes: as for B1
B3: the binding entry is listed as “binds”.

Values taken from US20240052045A1 (VIB VZW, published 2024).
